Assay results published in publication PMC3846746.
No constants are given. Whether binding was seen depends on the method and setting. In cells and extracts the contact can be indirect.

Target: T1, caveolin-1 (rat (endogenous in A7r5)) (UniProt P41350)
T1 sequence: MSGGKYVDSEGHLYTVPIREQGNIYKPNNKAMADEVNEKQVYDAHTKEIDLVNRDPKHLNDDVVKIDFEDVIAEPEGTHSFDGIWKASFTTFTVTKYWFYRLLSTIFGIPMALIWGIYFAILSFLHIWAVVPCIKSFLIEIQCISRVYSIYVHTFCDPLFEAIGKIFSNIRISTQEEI
Assay: co-IP; immunoprecipitation experiments told only in the discussion, no figure; which antibody precipitated is not told

binding: no binding
Substance: IQ motif containing GTPase activating protein 1 (rat (endogenous in A7r5))
